Assay results published in PubChem BioAssay AID1487 (National Center for Advancing Translational Sciences (NCATS), 2009).
This is one part of the list. These are further read-outs of the screen, such as a control signal, another cell line or another target. No call is given for them. Most of these compounds were active or inconclusive in the main read-out, so they are no random draw. The note in brackets gives the kind of curve behind each potency; many fits are weak.

Assay: qHTS Assay for Modulators of Lamin A Splicing
Details: HeLa LMNA splicing GFP/RFP minigene ratio, 48 h
Method in brief: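 S3 HeLa cells stably expressing lamin A-EGFP splicing minigene plus DsRed2, 600 cells/well, 48 h compound exposure at 37C. Laser-scanning cytometry; analysed as GFP (500-530 nm)/RFP (575-640 nm) total intensity ratio; 0.5% DMSO vehicle.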

[1] = measured here: GFP splicing reporter channel
[2] = measured here: RFP viability control channel

Compound	AC50 [1]	AC50 [2]
O=c1c(N2CCN(c3ccccc3)CC2)csc2ccc(Cl)cc12	8.91 µM [falling, partial curve, poor fit]	
CCOC(=O)C1Cn2c(nc3c(c2=O)C(C)(CC)Cc2ccccc2-3)S1 (centres undefined)		31.6 µM [rising, single point]
O=C(CCSCc1cccc(Cl)c1)NCc1ccccc1Cl	0.398 µM [falling, full curve]	
COc1ccc(NC(=O)CSc2nc3c(cc2C#N)CN(C)CC3)cc1	14.1 µM [rising, single point]	35.5 µM [rising, single point]
CCN1c2ccccc2-n2cccc2C12CCN(C(=O)Nc1ccccc1Br)CC2	3.55 µM [rising, single point]	3.55 µM [rising, single point]
CC(C)CN1CCN(Cc2nc3ccccc3s2)CC1CCO (centres undefined)	22.4 µM [falling, single point]	35.5 µM [falling, partial curve, poor fit]
N#CC1=C(N)SC(N)=C(C#N)C1c1cccc(Oc2ccccc2)c1		31.6 µM [rising, single point]
CCOCCCNC(=O)CNC(=S)N(Cc1ccccc1F)C1CCCCC1	2.51 µM [falling, partial curve]	1.58 µM [falling, partial curve, poor fit]
CCOc1cc2[nH]c(=O)n(Cc3ccc(C(=O)N4CCN(c5ccccc5)CC4)cc3)c(=O)c2cc1OCC	10 µM [falling, partial curve, poor fit]	12.6 µM [falling, partial curve, poor fit]
CCC/C(O)=C1\C(=O)CC(C)(C)CC1=Nc1ccc(OC)cc1OC		12.6 µM [rising, partial curve]
Cc1nc(-c2ccc(Cl)cc2)sc1CCNC(=O)C(=O)Nc1ccc2c(c1)OCCO2	3.55 µM [falling, partial curve]	31.6 µM [falling, partial curve, poor fit]
COc1cc(/C=C/C(=O)c2ccc(C)c([N+](=O)[O-])c2)cc(OC)c1O	35.5 µM [falling, single point]	35.5 µM [falling, single point]
CCOC(=O)c1cccc(NC(=O)CN2C(=O)C3C4C=CC(C4)C3C2=O)c1 (centres undefined)		0.316 µM [rising, partial curve, poor fit]
Cc1ccccc1/C=C/c1nc2ccccc2c(=O)n1CCc1ccccc1		14.1 µM [rising, partial curve]
CCOC(=O)c1nnn(CC(=O)NC(=O)Nc2ccccc2)c1C(=O)OCC		35.5 µM [falling, single point]
COc1cccc(-n2c(SCC(=O)N3CCc4ccccc43)nc3c([nH]c4ccccc43)c2=O)c1	0.0224 µM [falling, full curve, poor fit]	0.0224 µM [falling, full curve, poor fit]
CC(C)(C)c1cc(NC(=O)CSc2nnc(N)s2)n(-c2ccccc2)n1		20 µM [rising, partial curve, poor fit]

Compound	AC50 [1]	AC50 [2]
Cc1cc(C)c(O)c(-c2cc(C(=O)NCc3ccccc3)[nH]n2)c1	11.2 µM [rising, single point]	12.6 µM [rising, single point]
O=C(Nc1ccc(S(=O)(=O)Nc2nccs2)cc1)c1ccc(N2C(=O)c3ccccc3C2=O)cc1	2 µM [falling, partial curve, poor fit]	0.00891 µM [falling, full curve, poor fit]
C=C(C)C1CC=C(C)/C(=N\NC(=S)Nc2ccc(C)cc2)C1 (centres undefined)	10 µM [rising, partial curve, poor fit]	35.5 µM [rising, single point]
Cn1cnnc1SCC(=O)c1cc2ccccc2o1		11.2 µM [rising, single point]
CN(C)c1ccc(NC(=O)Nc2cccc(Cl)c2)cc1		6.31 µM [rising, partial curve, poor fit]
Cn1cnc2c(NCc3ccccc3)nc(NCCO)nc21	0.00501 µM [falling, full curve, poor fit]	
COc1ccc(-n2c(=O)[nH]c3c(C(N)=O)nc(C4CCCCC4)nc32)cc1		5.01 µM [rising, single point]
COc1ccc(S(=O)(=O)NCc2cccn2Cc2cccc(C)c2)cc1Cl	35.5 µM [falling, single point]	12.6 µM [falling, single point]
Cc1c(CCOC(=O)CC23CC4CC(CC(C4)C2)C3)sc[n+]1CC(=O)c1ccc(Br)cc1		20 µM [rising, single point]
COC(=O)c1ccc(COc2ccccc2/C=C(\C#N)C(=O)Nc2c(C)cccc2C)cc1	8.91 µM [rising, partial curve]	12.6 µM [rising, partial curve]
Cc1ccc(NC(=O)Cn2c(=O)cnc3ccccc32)cc1S(=O)(=O)N(C)C		35.5 µM [rising, partial curve]
NC(N)=NC(N)=Nc1ccc(SC(F)(F)F)cc1	12.6 µM [rising, single point]	12.6 µM [rising, partial curve]
CCc1nnc(NC(=O)c2ccc(S(=O)(=O)N3CCCc4ccccc43)cc2)o1		10 µM [rising, partial curve]
Cc1ccccc1CN1CCc2nc(N3CCN(c4ncccn4)CC3)ncc2C1	25.1 µM [falling, partial curve]	31.6 µM [falling, partial curve]
COC(=O)c1c[nH]n2c(=O)c(Cc3ccc(F)cc3Cl)c(C)nc12		14.1 µM [rising, single point]
CCCCn1c(O)c(/C=C2\C=NN=C2c2ccccc2)sc1=S		5.62 µM [rising, partial curve]
CCSc1nc2c(cnn2-c2ccc(C)cc2)c(=O)[nH]1		12.6 µM [rising, single point]

In the list so far, two have bromine.
Compound	AC50 [1]	AC50 [2]
CCN1c2ccccc2-n2cccc2C12CCN(C(=O)Nc1ccccc1Br)CC2	3.55 µM [rising, single point]	3.55 µM [rising, single point]
Cc1c(CCOC(=O)CC23CC4CC(CC(C4)C2)C3)sc[n+]1CC(=O)c1ccc(Br)cc1		20 µM [rising, single point]
